Results on two substances are retold here after publication PMC6775114.

Amino acid sequences for entries named in this document (tags omitted). A change or cut given only in a name is not applied to a line headed by its entry. Chains listed by the source or under a name are the forms on record and can include a tag or linker. Residues count along the entry.
GST-nesprin-1-alpha2 wild type (aa1-842, SR1-5, KASH-less bait protein) (Q8NF91, form named): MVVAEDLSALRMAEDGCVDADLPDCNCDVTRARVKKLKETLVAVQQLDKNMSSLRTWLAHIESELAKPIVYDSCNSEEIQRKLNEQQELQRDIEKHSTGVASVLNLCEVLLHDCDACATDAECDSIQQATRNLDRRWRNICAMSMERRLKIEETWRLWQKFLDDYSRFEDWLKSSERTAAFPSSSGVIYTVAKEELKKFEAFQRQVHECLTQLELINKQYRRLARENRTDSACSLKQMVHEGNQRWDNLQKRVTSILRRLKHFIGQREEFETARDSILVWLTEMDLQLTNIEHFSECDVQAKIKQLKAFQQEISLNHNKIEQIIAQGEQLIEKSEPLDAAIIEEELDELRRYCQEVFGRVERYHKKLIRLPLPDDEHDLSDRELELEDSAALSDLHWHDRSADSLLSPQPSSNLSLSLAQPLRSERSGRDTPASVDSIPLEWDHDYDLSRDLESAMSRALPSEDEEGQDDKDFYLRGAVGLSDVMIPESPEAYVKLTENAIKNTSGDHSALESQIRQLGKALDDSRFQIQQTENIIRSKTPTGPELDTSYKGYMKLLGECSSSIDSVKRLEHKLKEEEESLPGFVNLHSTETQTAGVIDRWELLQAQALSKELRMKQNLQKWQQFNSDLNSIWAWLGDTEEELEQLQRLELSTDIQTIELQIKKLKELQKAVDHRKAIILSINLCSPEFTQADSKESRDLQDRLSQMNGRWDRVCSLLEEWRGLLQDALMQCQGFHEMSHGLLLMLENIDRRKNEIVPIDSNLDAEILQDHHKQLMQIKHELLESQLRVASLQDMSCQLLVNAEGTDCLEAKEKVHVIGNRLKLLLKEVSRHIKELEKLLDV
UniProt Q07866: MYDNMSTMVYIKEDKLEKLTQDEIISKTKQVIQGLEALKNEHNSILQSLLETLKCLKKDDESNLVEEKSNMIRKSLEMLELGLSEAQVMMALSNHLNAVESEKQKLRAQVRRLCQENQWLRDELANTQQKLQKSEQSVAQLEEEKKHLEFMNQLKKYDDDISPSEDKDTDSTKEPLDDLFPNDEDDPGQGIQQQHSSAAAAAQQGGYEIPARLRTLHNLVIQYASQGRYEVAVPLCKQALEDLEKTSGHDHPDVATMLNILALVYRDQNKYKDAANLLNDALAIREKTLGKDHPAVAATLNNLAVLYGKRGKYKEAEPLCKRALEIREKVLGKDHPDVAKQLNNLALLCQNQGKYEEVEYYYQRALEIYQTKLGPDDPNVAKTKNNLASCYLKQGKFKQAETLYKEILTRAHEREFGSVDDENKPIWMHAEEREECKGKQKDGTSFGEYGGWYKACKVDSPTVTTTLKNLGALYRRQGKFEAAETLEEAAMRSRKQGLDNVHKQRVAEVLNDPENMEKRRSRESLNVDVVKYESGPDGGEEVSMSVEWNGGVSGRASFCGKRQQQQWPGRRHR
UniProt P02545, residues 1-646: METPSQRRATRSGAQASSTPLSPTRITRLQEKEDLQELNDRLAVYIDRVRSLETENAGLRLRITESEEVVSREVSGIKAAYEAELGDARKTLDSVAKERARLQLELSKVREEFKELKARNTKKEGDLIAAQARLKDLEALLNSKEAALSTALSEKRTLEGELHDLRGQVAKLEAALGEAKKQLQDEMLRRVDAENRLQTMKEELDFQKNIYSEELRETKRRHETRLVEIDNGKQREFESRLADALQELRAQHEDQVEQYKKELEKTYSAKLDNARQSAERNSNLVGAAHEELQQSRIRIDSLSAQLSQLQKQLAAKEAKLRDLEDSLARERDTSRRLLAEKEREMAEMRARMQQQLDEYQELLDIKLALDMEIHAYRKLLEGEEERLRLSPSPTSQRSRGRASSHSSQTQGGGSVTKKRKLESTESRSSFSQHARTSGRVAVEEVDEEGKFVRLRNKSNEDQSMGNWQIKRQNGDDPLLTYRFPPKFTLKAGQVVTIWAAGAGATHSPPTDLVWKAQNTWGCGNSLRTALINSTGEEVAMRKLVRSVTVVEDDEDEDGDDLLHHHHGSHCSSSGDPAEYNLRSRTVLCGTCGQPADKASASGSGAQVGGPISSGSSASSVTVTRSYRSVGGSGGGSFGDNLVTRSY

These are yes or no findings as the source states them, for the method shown. In cells and extracts the contact can be indirect. Some entries that bind do so weakly or less than the wild type.

The target in the assay is GST-nesprin-1-alpha2 wild type (aa1-842, SR1-5, KASH-less bait protein) (human) (UniProt Q8NF91). The experiment in a line: pull-down; GST-tagged bait on glutathione beads, RIPA extract of human myotubes; pulled-down proteins probed by western blot; only the target purified.

On to “human kinesin light-chain (kinesin light chain 1, 72 kDa) (from UniProt Q07866 1-573)”, for which the binding result is given as “binds”.
As to lamin A/C (from UniProt P02545 1-646), the binding result is given as “no binding”.
